The text below walks through data of doi:10.1101/2022.03.07.483178.

Sequences of proteins named here, by UniProt entry; tags and fusion partners are left off.
UniProt Q6P179: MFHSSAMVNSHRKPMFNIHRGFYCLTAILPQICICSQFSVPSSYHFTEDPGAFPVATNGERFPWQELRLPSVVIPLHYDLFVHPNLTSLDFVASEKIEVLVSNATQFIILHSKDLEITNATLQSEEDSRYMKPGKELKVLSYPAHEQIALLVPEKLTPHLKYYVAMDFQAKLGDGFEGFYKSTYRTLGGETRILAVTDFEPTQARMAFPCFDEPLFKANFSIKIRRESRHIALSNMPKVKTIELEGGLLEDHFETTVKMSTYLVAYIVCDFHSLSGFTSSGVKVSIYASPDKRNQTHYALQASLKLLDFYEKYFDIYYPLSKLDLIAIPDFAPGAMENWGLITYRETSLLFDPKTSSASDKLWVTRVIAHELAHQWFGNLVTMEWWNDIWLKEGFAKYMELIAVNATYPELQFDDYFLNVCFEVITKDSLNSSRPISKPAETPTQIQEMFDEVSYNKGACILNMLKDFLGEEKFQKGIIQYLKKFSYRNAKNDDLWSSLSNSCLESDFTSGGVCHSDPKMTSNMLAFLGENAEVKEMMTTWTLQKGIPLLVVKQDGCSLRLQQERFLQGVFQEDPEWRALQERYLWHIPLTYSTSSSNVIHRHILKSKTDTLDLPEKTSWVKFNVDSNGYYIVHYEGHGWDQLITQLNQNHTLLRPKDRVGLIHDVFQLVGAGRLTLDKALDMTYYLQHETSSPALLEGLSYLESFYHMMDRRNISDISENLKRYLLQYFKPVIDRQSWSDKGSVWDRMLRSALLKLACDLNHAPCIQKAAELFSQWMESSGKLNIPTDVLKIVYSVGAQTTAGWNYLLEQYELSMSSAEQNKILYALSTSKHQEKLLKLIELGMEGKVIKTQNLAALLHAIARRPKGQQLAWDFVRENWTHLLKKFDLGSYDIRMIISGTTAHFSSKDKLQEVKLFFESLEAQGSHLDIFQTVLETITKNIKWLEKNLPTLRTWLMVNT
UniProt Q9UIQ6: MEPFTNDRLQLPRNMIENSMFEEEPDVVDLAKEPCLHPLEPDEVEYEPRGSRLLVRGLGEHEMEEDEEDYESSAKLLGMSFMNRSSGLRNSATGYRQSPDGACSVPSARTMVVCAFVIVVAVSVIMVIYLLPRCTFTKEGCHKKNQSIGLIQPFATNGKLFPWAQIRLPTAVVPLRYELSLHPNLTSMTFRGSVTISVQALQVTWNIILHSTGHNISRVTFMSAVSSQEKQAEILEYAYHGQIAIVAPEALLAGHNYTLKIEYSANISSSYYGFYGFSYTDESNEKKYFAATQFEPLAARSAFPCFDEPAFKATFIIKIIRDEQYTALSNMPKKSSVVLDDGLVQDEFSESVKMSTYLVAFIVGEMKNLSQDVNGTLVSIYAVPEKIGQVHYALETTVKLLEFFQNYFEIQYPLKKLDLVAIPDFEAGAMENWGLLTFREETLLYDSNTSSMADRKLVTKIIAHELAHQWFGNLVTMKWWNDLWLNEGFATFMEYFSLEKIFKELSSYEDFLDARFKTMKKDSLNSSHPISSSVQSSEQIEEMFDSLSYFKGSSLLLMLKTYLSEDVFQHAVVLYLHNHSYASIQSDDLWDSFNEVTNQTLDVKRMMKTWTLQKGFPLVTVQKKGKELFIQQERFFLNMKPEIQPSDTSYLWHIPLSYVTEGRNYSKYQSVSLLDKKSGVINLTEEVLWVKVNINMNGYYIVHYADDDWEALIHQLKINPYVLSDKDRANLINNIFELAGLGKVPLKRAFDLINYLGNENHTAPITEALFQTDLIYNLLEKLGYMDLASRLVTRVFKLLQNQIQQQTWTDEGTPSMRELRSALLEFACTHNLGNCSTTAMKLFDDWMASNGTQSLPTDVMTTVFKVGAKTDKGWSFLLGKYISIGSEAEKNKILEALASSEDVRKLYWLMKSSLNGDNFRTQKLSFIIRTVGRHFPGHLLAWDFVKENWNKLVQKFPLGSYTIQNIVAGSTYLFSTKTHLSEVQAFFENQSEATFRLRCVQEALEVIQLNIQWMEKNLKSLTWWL
UniProt Q9NZ08: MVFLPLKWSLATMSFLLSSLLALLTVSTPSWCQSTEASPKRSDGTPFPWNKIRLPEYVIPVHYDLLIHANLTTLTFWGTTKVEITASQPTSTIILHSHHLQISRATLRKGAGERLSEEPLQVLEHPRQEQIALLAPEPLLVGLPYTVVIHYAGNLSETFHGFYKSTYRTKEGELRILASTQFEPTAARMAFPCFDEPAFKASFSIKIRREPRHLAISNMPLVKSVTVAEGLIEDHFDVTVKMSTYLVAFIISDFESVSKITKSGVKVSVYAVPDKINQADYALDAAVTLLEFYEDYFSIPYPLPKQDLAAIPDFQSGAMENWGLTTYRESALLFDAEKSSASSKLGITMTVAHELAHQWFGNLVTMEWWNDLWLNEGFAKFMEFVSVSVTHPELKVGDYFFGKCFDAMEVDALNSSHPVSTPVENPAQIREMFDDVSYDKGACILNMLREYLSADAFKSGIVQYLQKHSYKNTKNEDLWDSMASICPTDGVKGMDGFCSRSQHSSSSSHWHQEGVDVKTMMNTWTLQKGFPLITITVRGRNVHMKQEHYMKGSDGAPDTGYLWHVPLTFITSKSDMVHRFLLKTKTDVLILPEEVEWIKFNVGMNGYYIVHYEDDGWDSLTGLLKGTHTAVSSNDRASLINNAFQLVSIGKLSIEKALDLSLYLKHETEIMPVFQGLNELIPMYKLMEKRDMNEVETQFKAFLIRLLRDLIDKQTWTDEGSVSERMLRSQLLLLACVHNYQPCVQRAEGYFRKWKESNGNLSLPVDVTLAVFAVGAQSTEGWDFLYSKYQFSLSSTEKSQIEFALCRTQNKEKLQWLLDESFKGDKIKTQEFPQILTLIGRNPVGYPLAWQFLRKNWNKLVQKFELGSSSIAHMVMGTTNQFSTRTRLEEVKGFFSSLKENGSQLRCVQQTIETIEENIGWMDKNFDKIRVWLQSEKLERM

Assay [1] concerns the target ERAP2 full length (canonical ERAP2 protein, 115 kDa) (human (endogenous in U937)) (UniProt Q6P179). In words: co-IP.
Assay [2] concerns the target IRAP (human (endogenous in U937)) (UniProt Q9UIQ6). In words: co-IP.

These are yes or no findings as the source states them, for the method shown. In cells and extracts the contact can be indirect.

In the case of “ERAP1 (from UniProt Q9NZ08 1-941) (enzyme)”, the binding result in assay [1] and in assay [2] was “no binding” in each case.
